In patent US20240327522A1 (Genentech, published 2024):
Results are given in words; binding and its absence hold for the method and conditions named. Some entries that bind do so weakly or less than the wild type.

The chains behind the UniProt entries cited, without tags or fusion partners. Where a name states a change or a piece, a line headed by the entry shows the natural chain unless it says otherwise.
UniProt P43406: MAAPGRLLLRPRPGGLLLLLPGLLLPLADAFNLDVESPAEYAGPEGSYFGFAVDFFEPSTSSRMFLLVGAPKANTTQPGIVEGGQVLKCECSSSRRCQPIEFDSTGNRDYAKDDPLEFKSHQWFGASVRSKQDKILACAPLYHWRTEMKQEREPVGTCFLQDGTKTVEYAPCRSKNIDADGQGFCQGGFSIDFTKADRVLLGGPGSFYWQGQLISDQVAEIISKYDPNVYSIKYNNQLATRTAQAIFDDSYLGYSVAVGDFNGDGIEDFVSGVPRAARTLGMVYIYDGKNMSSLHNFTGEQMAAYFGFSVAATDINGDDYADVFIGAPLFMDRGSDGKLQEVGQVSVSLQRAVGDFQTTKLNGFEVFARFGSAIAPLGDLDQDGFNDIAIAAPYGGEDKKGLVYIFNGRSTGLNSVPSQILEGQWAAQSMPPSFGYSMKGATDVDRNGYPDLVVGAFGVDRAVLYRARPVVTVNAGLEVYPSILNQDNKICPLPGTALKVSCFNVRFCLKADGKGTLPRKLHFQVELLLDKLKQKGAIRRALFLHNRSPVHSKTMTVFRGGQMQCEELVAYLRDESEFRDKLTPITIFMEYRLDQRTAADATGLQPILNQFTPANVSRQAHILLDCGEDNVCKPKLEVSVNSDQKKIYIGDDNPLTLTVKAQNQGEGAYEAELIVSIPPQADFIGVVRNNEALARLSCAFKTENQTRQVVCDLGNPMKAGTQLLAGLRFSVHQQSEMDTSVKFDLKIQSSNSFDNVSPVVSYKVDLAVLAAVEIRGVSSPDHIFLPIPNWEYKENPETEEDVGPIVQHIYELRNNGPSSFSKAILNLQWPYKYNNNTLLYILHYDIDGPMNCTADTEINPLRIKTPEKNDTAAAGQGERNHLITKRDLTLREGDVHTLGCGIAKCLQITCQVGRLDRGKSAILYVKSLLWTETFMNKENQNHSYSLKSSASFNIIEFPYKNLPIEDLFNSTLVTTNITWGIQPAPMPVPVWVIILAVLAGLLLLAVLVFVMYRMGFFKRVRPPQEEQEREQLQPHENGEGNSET
UniProt Q0VBD0: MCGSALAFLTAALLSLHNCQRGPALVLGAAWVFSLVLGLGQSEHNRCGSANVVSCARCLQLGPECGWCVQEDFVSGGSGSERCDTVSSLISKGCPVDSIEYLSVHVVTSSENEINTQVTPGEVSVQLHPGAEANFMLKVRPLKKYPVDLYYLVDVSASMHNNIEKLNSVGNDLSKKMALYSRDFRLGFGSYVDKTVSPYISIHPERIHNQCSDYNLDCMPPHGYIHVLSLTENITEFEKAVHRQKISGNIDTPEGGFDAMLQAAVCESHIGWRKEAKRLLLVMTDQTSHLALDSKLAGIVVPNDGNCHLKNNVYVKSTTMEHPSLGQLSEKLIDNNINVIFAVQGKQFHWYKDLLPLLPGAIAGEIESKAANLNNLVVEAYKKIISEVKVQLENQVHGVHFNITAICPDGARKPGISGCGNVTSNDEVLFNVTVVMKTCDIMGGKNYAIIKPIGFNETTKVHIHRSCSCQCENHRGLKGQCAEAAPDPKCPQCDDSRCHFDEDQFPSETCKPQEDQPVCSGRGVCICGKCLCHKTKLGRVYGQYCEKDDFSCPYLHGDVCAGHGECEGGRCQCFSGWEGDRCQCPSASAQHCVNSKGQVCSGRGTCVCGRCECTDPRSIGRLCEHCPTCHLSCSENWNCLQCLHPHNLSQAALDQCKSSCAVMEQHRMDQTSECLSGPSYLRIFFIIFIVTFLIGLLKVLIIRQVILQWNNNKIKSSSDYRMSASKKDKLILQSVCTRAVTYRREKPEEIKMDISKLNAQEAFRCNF
UniProt P06756: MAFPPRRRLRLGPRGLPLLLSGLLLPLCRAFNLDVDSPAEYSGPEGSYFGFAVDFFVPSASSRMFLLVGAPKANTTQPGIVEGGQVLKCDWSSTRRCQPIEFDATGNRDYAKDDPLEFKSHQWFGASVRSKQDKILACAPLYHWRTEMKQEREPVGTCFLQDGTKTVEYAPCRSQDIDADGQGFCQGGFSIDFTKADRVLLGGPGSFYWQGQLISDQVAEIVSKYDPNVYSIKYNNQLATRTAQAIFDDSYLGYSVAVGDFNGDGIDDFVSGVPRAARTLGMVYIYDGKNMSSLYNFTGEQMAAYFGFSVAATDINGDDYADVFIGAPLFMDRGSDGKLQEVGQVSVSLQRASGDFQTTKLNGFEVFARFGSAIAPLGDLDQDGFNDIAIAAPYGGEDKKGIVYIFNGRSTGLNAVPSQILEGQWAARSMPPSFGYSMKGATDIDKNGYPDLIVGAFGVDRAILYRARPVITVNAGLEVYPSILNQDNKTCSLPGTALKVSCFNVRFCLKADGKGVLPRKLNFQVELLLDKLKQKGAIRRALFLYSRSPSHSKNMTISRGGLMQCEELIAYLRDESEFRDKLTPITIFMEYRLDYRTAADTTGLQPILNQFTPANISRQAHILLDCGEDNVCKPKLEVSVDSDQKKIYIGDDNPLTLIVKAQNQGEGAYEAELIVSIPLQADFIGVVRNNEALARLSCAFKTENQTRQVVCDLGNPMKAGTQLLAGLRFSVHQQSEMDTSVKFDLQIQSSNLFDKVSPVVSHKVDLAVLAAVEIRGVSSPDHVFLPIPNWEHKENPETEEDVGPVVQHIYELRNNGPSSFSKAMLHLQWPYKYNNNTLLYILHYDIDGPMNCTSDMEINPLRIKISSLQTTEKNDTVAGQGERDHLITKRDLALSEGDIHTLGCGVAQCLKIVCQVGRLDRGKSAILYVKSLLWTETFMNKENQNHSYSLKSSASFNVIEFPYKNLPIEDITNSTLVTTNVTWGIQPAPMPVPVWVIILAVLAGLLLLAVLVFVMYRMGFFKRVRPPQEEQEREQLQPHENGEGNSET
UniProt A0A0G2JVU1: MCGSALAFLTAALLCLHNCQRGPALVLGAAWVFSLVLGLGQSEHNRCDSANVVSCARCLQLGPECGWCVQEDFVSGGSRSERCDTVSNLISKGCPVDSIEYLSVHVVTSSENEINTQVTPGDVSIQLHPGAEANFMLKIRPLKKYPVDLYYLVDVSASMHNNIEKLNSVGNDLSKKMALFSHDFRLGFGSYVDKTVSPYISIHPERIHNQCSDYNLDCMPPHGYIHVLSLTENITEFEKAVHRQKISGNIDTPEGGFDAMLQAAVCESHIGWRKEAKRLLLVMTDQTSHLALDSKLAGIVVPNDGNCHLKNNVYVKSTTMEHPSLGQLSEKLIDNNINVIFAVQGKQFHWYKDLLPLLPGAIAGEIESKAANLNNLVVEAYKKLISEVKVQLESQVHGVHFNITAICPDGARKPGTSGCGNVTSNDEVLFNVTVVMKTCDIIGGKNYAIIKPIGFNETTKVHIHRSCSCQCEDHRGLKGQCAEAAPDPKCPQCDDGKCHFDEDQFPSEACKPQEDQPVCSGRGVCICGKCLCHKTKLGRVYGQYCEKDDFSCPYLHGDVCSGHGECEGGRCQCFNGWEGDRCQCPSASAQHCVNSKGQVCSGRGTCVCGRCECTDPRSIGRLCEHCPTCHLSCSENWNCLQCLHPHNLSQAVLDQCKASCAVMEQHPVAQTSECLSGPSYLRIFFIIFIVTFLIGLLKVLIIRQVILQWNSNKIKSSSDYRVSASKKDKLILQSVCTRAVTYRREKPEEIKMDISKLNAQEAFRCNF

Key:
[1] = molecular target: T1, recombinant mouse αvβ8 protein (PARS-17103) (murine) (UniProt P43406+Q0VBD0); assay: SPR
[2] = molecular target: recombinant human αvβ8 (cryo-EM construct) (human) (UniProt P06756); assay: size exclusion chromatography; cryo-EM
[3] = molecular target: recombinant cynomolgus monkey αvβ8 protein (PARS-19393) (cynomolgus monkey); assay: SPR
[4] = molecular target: recombinant cynomolgus monkey αvβ8 protein (PARS-19393) (cynomolgus monkey); assay: SPR, Biacore T200, Protein A capture
[5] = molecular target: recombinant rat αvβ8 protein (PARS-22180) (rat) (UniProt F1LZX9+A0A0G2JVU1); assay: SPR, Biacore T200, Protein A capture
[6] = molecular target: T1, recombinant mouse αvβ8 protein (PARS-17103) (murine); assay: SPR, Biacore T200, Protein A capture

| Binder | binding [1] | binding [3] | further results |
| --- | --- | --- | --- |
| Rb.aVb8-65 (antibody, V domains shown, Recombinant rabbit monoclonal antibody expressed in Expi293 cells; also called rb.αvβ8-65; rabbit αvβ8-65) VH: QSVEESGGRLVTPGTPLTLTCTVSGIDLSNYAMIWVRQAPGKGLEWIGIISSSDRIWYASWVKGRFTISKTSSTTVDLQMTSLTTEDTATYFCSRSVSNSYFDGWNLWGPGTLVTVSS VL: DIVMTQTPASVEAAVGGTVTIKCQASENINSLLAWYQQKPGQPPKLLIYRASTLASGVPSRFRGSGSGTQFTLTISDLECDDAATYYCQSNYGFTGSGAFFYGFGGGTEVVVE | binds | – | – |
| FAB 65 (anti-ITGB8.αvβ8-65) (Fab, V domains shown) VH: QSVEESGGRLVTPGTPLTLTCTVSGIDLSNYAMIWVRQAPGKGLEWIGIISSSDRIWYASWVKGRFTISKTSSTTVDLQMTSLTTEDTATYFCSRSVSNSYFDGWNLWGPGTLVTVSS VL: DIVMTQTPASVEAAVGGTVTIKCQASENINSLLAWYQQKPGQPPKLLIYRASTLASGVPSRFRGSGSGTQFTLTISDLECDDAATYYCQSNYGFTGSGAFFYGFGGGTEVVVE | – | – | binding [2]: binds |
| Rb.aVb8-92 (antibody, V domains shown, Recombinant rabbit monoclonal antibody expressed in Expi293 cells; also called rb.αvβ8-92; rabbit αvβ8-92) VH: QSVEESGGRLVTPGTPLTLTCTVSGFSLSSYAMGWVRQAPGKGLEWIGVIRKDDNTYYGNWAKGRFTISRTSTTVDLKMTSLTAADTATYFCARALNTYVGFPYFNIWGPGTLVTVSS VL: AAVLTQTPSPVSAAVGGTVSISCQSIKSVGDNKWLAWYQQKPGQPPKLLIYDASDLASGVPSRFKGSGSRTQFTLTISDLQCDDAATYYCAGSVSSGDSGFGGGTEVVVA | binds | – | – |

More lines, main results first:

| binding [1] | binding [3] | Binder | further results |
| --- | --- | --- | --- |
| binds | binds | Hu.aVb8-92.H13L1 (aVb8-92.H13L1.hIgG1.LALAPG) (antibody, V domains shown, Human IgG1 LALAPG; also called PARS-20463-65 (IH) aVb8-92.H13L1.hIgG1.LALAPG; humanized αvβ8-92) VH: EQQLLESGGGLVQPGGSLRLSCAASGFSLSSYAMGWVRQAPGKGLEWIGVIRKDDNTYYGNWAKGRFTISRDSSKNTLYLQMNSLRAEDTAVYFCARALNTYVGFPYFNIWGPGTLVTVSS VL: DAVLTQSPDSLAVSLGERATINCQSIKSVGDNKWLAWYQQKPGQPPKLLIYDASDLASGVPDRFSGSGSRTDFTLTISSLQAEDVAVYYCAGSVSSGDSGFGGGTKVEIKR | – |
| binds | binds | Hu.aVb8-65.H15L2 (aVb8-65.H15L2.hIgG1.LALAPG) (antibody, V domains shown, Human IgG1 LALAPG; also called PARS-20475-65 (IH) aVb8-65.H15L2.hIgG1.LALAPG; humanized αvβ8-65) VH: EVQLLESGGGLVQPGGSLRLSCAASGIDLSNYAMIWVRQAPGKGLEWVGIISSSDRIWYASWVKGRFTISRDNSKNTLYLQMNSLRAEDTAVYYCSRSVSNSYFDGWNLWGQGTLVTVSS VL: DIQMTQSPSSVSASVGDRVTITCQASENINSLLAWYQQKPGKAPKLLIYRASTLASGVPSRFSGSGSGTDFTLTISSLQPEDFATYYCQSNYGFTGSGAFFYGFGQGTKVEIKR | binding [4]: binds; binding [5]: binds; binding [6]: binds |
